# Results reported in the supplement of paper PMC12889115.
# This is one part of the list. Values are raw readings; no control value is given beside them.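 In the initial screen, polymyxin B was used at a concentration that permeabilizes Salmonella's outer membrane but not its inner membrane. Maximum growth was set by DMSO wells with or without polymyxin B. Since plates varied, data were ranked per plate, and compounds giving the lowest OD600 advanced as hits.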
# Test system: Salmonella enterica serovar Typhimurium SL1344
# Test: bacterial growth OD600 after 18 h with compound and polymyxin B; higher = more bacterial growth (less inhibition)
# Conditions: 50 µM, Mueller-Hinton broth
SMILES,bacterial growth OD600 (polymyxin B 0.75 µg/mL),bacterial growth OD600 (polymyxin B 1 µg/mL)
Cc1oc(-c2cccc(C(F)(F)F)c2)nc1CN(Cc1ccccc1)C[C@@H]1CCC(=O)N1,-0.001,–
COc1ccc(-c2noc(CN3CCC(C(=O)N4CCCC4)CC3)n2)cc1,–,0.894
COc1ccc(CC2(CCC(=O)N3CCCCC3C)CCC(=O)N2)c(F)c1 (stereo not given),0.802,–
CC(=O)c1ccccc1C(=O)N1CCCC(Nc2ccc(C(C)C)cc2)C1 (stereo not given),–,0.917
CCCCC1CN(CCNC(=O)Cc2sc(C)nc2C)Cc2ccccc2O1 (stereo not given),0.825,–
Cc1ccc2c(CC(=O)N3CCc4c(cnc(C)c4CNC(=O)c4cncs4)C3)cc(=O)oc2c1,0.821,–
O=C(CCC1CCCN(C(=O)C2CCCCC2)C1)N1CCN(Cc2ccccc2)CC1 (stereo not given),–,0.836
COc1ccccc1N1CCN(C2CCCN(C(=O)CCC(N)=O)C2)CC1 (stereo not given),–,1.08
CC(C)c1nccn1CCCNC(=O)c1ccc(N2CCN(C(C)C)CC2)nc1,–,1.22
CC1CN(Cc2ccc3c(c2)OCO3)Cc2cc(Cl)ccc2O1 (stereo not given),0.095,–
O=C(NCCc1cnccn1)c1cc(COc2cccc(F)c2)[nH]n1,0.89,–
CCC(C)CC(=O)N1CCC(C2(Cc3cccc(F)c3)NC(=O)N(CCOC)C2=O)CC1 (stereo not given),0.889,–
CCn1cc(C(=O)N2CCCC(CNC(=O)c3cccc4ccccc34)C2)cn1 (stereo not given),–,0.88
COc1ccccc1C(=O)Nc1ccnn1C1CCN(C(=O)C(C)(C)C)CC1,–,0.85
CN(CCc1cnn(C)c1)c1nncc(-c2ccccc2F)n1,–,0.911
O=C(NCCCc1ccccc1)c1coc(CN2CCN(c3ncccn3)CC2)n1,–,0.555
COC(=O)[C@@H]1CCCN1C(=O)Cc1ccc(N2CCC(NCCSc3nccn3C)CC2)cc1,0.908,–
COc1ccccc1C1CN(CC(=O)NCc2cccc(F)c2F)Cc2ccccc2O1 (stereo not given),0.6,–
CCCCn1c(CN(C)Cc2cccc(OC)c2)cnc1S(=O)(=O)CC1CCC1,–,0.017
O=C(CCC1(Cc2ccco2)CCC(=O)N1)NCc1ccc(F)cc1 (stereo not given),0.86,–
OCC1(CCc2ccccc2)CCCN(Cc2ccc3c(c2)CCO3)C1 (stereo not given),–,0.822
C=C(C)CN(CC)C(=O)CCc1nnc(CCc2ccc(OC)cc2)o1,–,0.861
COc1ccccc1OCc1cc(C(=O)N2CCN(c3ccccc3)C(=O)C2)n[nH]1,–,1.19
CCOC(=O)N1CCN(Cc2ccc3c(c2)CN(C(=O)CC2=CCCCC2)CCO3)CC1,1.02,–
Cc1ccoc1C(=O)N1CCC(C2CCN(Cc3cccnc3)CC2)C1 (stereo not given),0.882,–
CCOC(=O)C1(Cc2ccc(F)cc2)CCCN(C(=O)c2ccc(OC)cc2)C1 (stereo not given),–,0.999
COCCC(=O)N1CCCC1C(=O)Nc1cccc(-c2cccc(C)c2)c1 (stereo not given),–,0.888
COc1ccc(CNC(=O)CCC2CCCN(Cc3cccc(C)c3)C2)c(OC)c1 (stereo not given),0.807,–
CCC(=O)C1CCCN(C(=O)CC2(c3ccccc3Cl)CC(=O)N(CCCOC)C2=O)C1 (stereo not given),0.657,–
CC(=O)c1ccccc1-c1ccc2c(c1)CC(CNC(=O)Cc1ccccc1C)O2 (stereo not given),0.005,–

# Some of the entries so far, with bars between the fields:
SMILES | bacterial growth OD600 (polymyxin B 0.75 µg/mL) | bacterial growth OD600 (polymyxin B 1 µg/mL)
O=C(NCCCc1ccccc1)c1coc(CN2CCN(c3ncccn3)CC2)n1 | – | 0.555
COC(=O)[C@@H]1CCCN1C(=O)Cc1ccc(N2CCC(NCCSc3nccn3C)CC2)cc1 | 0.908 | –
